Some of these results come from one statement about several compounds together.
Test system: Haemaphysalis longicornis
Test: Test for control of Haemaphysalis longicornis (dry film in glass vial)
Type: in vivo
Conditions: larvae, one day after release
Description: Into a glass vial having a capacity of 4 mL, 30 μL of an acetone solution containing 200 ppm or 10 ppm of a compound of the present invention was introduced. The vial was placed on a shaker, and air dried, while being rotated. Thus, a dry film of the compound was formed on the inner wall of the vial. After the vial was dried for 24 hours or longer, 10 larvae of Haemaphysalis longicornis were released in the vial, and then the vial was capped. The vial was allowed to stand in a thermostatic chamber under conditions of 25° C., a humidity of 85%, and total darkness. […] The test was duplicated. Mortality rate (%)=[Number of dead insects/(Number of survived insects+Number of dead insects)]×100

Question: What does the source list for `O=C(N=c1ccccn1Cc1cnc(Cl)s1)C(F)(F)F` [Compound 9]?
Answer: Mortality rate (10 ppm): ≥ 80%; Mortality rate (200 ppm): ≥ 80%

Reference: patent publication US9357776B2, “Method for producing pest control agent” (priority 2011, dated 2016)
